Some of the results follow. Repeats are few or missing, and single values can be far off.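 Cells were imaged in 1,536-well plates, and nuclei stained with an antibody against cleaved PARP were counted against all DNA-stained nuclei to give the apoptosis fraction. Screening doses were chosen to leave most cells alive, and resting and induced cleaved-PARP levels differ strongly between cell lines.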
system: LOXIMVI; assay: cleaved PARP positive nuclei fraction relative to DMSO control; melanoma cells; higher = more apoptosis; settings: library dose: low library concentration; 72 h

In order of rising “cleaved PARP positive nuclei fraction” value:
1. CS(=O)(=O)c1ccc(C(=O)Nc2ccc(Cl)c(-c3ccccn3)c2)c(Cl)c1 [vismodegib] + Cn1cc(/C=C2\C(=O)Nc3cccnc32)c2ccccc21 [GW441756] (first compound 1 µM, partner dose 0.4 µM)  15.2%
2. Cn1sc(=O)n(Cc2ccccc2)c1=O + CCN(CC)CCCCNc1ncc2cc(-c3cc(OC)cc(OC)c3)c(NC(=O)NC(C)(C)C)nc2n1 [PD173074] (first compound 0.4 µM, partner dose 0.1 µM)  31.4%
3. CCN(CC)CCNC(=O)c1c(C)[nH]c(/C=C2\C(=O)Nc3ccc(F)cc32)c1C [sunitinib] + CCN(CC)CCCCNc1ncc2cc(-c3cc(OC)cc(OC)c3)c(NC(=O)NC(C)(C)C)nc2n1 [PD173074] (first compound 0.4 µM, partner dose 0.1 µM)  33.1%
4. NC(=O)c1ccc(N(C(N)=O)c2c(F)cccc2F)nc1-c1ccc(F)cc1F + O=C(O)C(=O)Nc1sc2c(c1C(=O)O)CCNC2 [TCS401] (first compound 0.4 µM, partner dose 1.66667 µM)  44.8%
5. C[C@]1(O)C[C@@H](c2nc(-c3ccc4ccc(-c5ccccc5)nc4c3)c3c(N)nccn32)C1 + Oc1cc(-c2nc(-c3ccccc3)[nH]c2-c2ccncc2)ccc1Cl [L779450] (first compound 0.4 µM, partner dose 0.2 µM)  59.9%
6. CS(=O)(=O)c1ccc(C(=O)Nc2ccc(Cl)c(-c3ccccn3)c2)c(Cl)c1 [vismodegib] + COc1cc(N2CCC(N3CCN(C)CC3)CC2)ccc1Nc1ncc(Cl)c(Nc2ccccc2S(=O)(=O)C(C)C)n1 [NVP-TAE684] (first compound 1 µM, partner dose 0.08 µM)  67.9%
7. COc1ccc(C2=N[C@@H](c3ccc(Cl)cc3)[C@@H](c3ccc(Cl)cc3)N2C(=O)N2CCNC(=O)C2)c(OC(C)C)c1 [Nutlin-3] + COc1ccc(COc2ccc(Cc3cnc(N)nc3N)cc2OC)cc1 [GW2580] (first compound 0.1 µM, partner dose 1 µM)  69.9%
8. NC1(c2ccc(-c3nc4ccn5c(=O)[nH]nc5c4cc3-c3ccccc3)cc2)CCC1 + CC(C)CCN1c2nc(Nc3cc(F)c(O)c(F)c3)ncc2N(C)C(=O)C1C [BID1870] (first compound 0.4 µM, partner dose 0.2 µM)  70.9%
9. CCN(CC)CCNC(=O)c1c(C)[nH]c(/C=C2\C(=O)Nc3ccc(F)cc32)c1C [sunitinib] + c1cc(-c2cnn3cc(-c4ccc(OCCN5CCCCC5)cc4)cnc23)ccn1 [Dorsomorphin] (first compound 0.4 µM, partner dose 0.4 µM)  71.7%
10. C[C@]1(O)C[C@@H](c2nc(-c3ccc4ccc(-c5ccccc5)nc4c3)c3c(N)nccn32)C1 + O=C(O)C(=O)Nc1sc2c(c1C(=O)O)CCNC2 [TCS401] (first compound 0.4 µM, partner dose 1.66667 µM)  75.7%
11. Cn1cnc2c(F)c(Nc3ccc(Br)cc3Cl)c(C(=O)NOCCO)cc21 [selumetinib] + COc1ccc(COc2ccc(Cc3cnc(N)nc3N)cc2OC)cc1 [GW2580] (first compound 0.015 µM, partner dose 1 µM)  77.5%
12. CN(c1ncccc1CNc1nc(Nc2ccc3c(c2)CC(=O)N3)ncc1C(F)(F)F)S(C)(=O)=O + COc1ccc(-c2ccc3c(N4CCOCC4)nc(N4C[C@@H](C)O[C@@H](C)C4)nc3n2)cc1CO [KU0063794] (first compound 0.08 µM, partner dose 0.02 µM)  86.7%
13. CCCCCCCCc1ccc(CCC(N)(CO)CO)cc1 [fingolimod] + COC(=O)c1sccc1S(=O)(=O)Nc1ccc(Nc2ccccc2)cc1OC [GSK0660] (first compound 2 µM, partner dose 1 µM)  107%
14. CCN(CC)CCNC(=O)c1c(C)[nH]c(/C=C2\C(=O)Nc3ccc(F)cc32)c1C [sunitinib] + O=C1NC(=O)/C(=C/c2ccc(-c3ccc(F)cc3O)o2)S1 [AS252424] (first compound 0.4 µM, partner dose 1 µM)  139%
15. Cn1cnc2c(F)c(Nc3ccc(Br)cc3Cl)c(C(=O)NOCCO)cc21 [selumetinib] + O=C(Nc1ccccc1)c1cc([N+](=O)[O-])ccc1Cl [GW9662] (first compound 0.015 µM, partner dose 2 µM)  148%
16. COc1ccc(C2=N[C@@H](c3ccc(Cl)cc3)[C@@H](c3ccc(Cl)cc3)N2C(=O)N2CCNC(=O)C2)c(OC(C)C)c1 [Nutlin-3] + Cn1cc(/C=C2\C(=O)Nc3cccnc32)c2ccccc21 [GW441756] (first compound 0.1 µM, partner dose 0.4 µM)  149%
17. CCN(CC)CCNC(=O)c1c(C)[nH]c(/C=C2\C(=O)Nc3ccc(F)cc32)c1C [sunitinib] + CC(C)CCN1c2nc(Nc3cc(F)c(O)c(F)c3)ncc2N(C)C(=O)C1C [BID1870] (first compound 0.4 µM, partner dose 0.2 µM)  152%
18. CC(=O)O[C@@]12CO[C@@H]1C[C@H](O)[C@@]1(C)C(=O)[C@H](O)C3=C(C)[C@@H](OC(=O)[C@H](O)[C@@H](NC(=O)OC(C)(C)C)c4ccccc4)C[C@@](O)([C@@H](OC(=O)c4ccccc4)[C@H]21)C3(C)C [Docetaxel] + CCCCCCCCCCCC1=C(O)C(=O)C=C(O)C1=O [Embelin] (first compound 0.0001 µM, partner dose 1.2 µM)  153%
19. CC(=O)O[C@@]12CO[C@@H]1C[C@H](O)[C@@]1(C)C(=O)[C@H](O)C3=C(C)[C@@H](OC(=O)[C@H](O)[C@@H](NC(=O)OC(C)(C)C)c4ccccc4)C[C@@](O)([C@@H](OC(=O)c4ccccc4)[C@H]21)C3(C)C [Docetaxel] + COc1ccc(-c2ccc3c(N4CCOCC4)nc(N4C[C@@H](C)O[C@@H](C)C4)nc3n2)cc1CO [KU0063794] (first compound 0.0001 µM, partner dose 0.02 µM)  170%
20. CC1(C)CCC(c2ccc(Cl)cc2)=C(CN2CCN(c3ccc(C(=O)NS(=O)(=O)c4ccc(N[C@H](CCN5CCOCC5)CSc5ccccc5)c(S(=O)(=O)C(F)(F)F)c4)cc3)CC2)C1 + COc1cc(N2CCC(N3CCN(C)CC3)CC2)ccc1Nc1ncc(Cl)c(Nc2ccccc2S(=O)(=O)C(C)C)n1 [NVP-TAE684] (first compound 0.4 µM, partner dose 0.08 µM)  179%
21. CCN(CC)CCNC(=O)c1c(C)[nH]c(/C=C2\C(=O)Nc3ccc(F)cc32)c1C [sunitinib] + CCCCCCCCCCCC1=C(O)C(=O)C=C(O)C1=O [Embelin] (first compound 0.4 µM, partner dose 1.2 µM)  194%
22. C[C@@H](N)c1ccc(C(=O)Nc2ccnc3[nH]ccc23)cc1 + COc1ccc2c(c1)CCC1C2CCC2(C)C(NCCCCCCN3C(=O)C=CC3=O)CCC12 [U73122] (first compound 0.4 µM, partner dose 0.4 µM)  214%
23. C[C@@H](N)c1ccc(C(=O)Nc2ccnc3[nH]ccc23)cc1 + O=C1NC(=O)/C(=C/c2ccc(-c3ccc(F)cc3O)o2)S1 [AS252424] (first compound 0.4 µM, partner dose 1 µM)  386%

— the supplement of paper PMC4604168 (melanoma cell lines)
